Common to all, as to assay type: cell-based
The target in experiment [1] is T1, RNA polymerase II (Mus musculus) (UniProt P08775+Q8CFI7+P97760+A0A3Q4L2S8+Q80UW8+P61219+P62488+Q923G2+P60898+O08740+Q63871+P62876). The experiment in a line: Inhibition of RNA polymerase II in mouse B16-F1 migrating cells assessed as fold change in Gtse1-RNA stability at 0.1 mM measured by ChIP-seq analysis relative to control cells.
In experiment [2] the target is T1, RNA polymerase II (Mus musculus). The experiment in a line: Inhibition of RNA polymerase II in mouse B16-F1 migrating cells assessed as fold change in Bsg-RNA stability at 0.1 mM measured by ChIP-seq analysis relative to control cells.
Experiment [3] shares this target. The experiment in a line: Inhibition of RNA polymerase II in mouse B16-F1 migrating cells assessed as fold change in Kansl1l-RNA stability at 0.1 mM measured by ChIP-seq analysis relative to control cells.
The target is the same in experiment [4]. The experiment in a line: Inhibition of RNA polymerase II in mouse B16-F1 migrating cells assessed as fold change in Emc1-RNA stability at 0.1 mM measured by ChIP-seq analysis relative to control cells.
For experiment [5] the target is unchanged. The experiment in a line: Inhibition of RNA polymerase II in mouse B16-F1 migrating cells assessed as fold change in Pigyl-RNA stability at 0.1 mM measured by ChIP-seq analysis relative to control cells.
Experiment [6] shares this target. The experiment in a line: Inhibition of RNA polymerase II in mouse B16-F1 migrating cells assessed as fold change in Rplp0-RNA stability at 0.1 mM measured by ChIP-seq analysis relative to control cells.
Experiment [7] has the same target. The experiment in a line: Inhibition of RNA polymerase II in mouse B16-F1 migrating cells assessed as fold change in Dap-RNA stability at 0.1 mM measured by ChIP-seq analysis relative to control cells.
For experiment [8] the target is unchanged. The experiment in a line: Inhibition of RNA polymerase II in mouse B16-F1 migrating cells assessed as fold change in Gnl1-RNA stability at 0.1 mM measured by ChIP-seq analysis relative to control cells.
Experiment [9] shares this target. The experiment in a line: Inhibition of RNA polymerase II in mouse B16-F1 migrating cells assessed as fold change in Susd6-RNA stability at 0.1 mM measured by ChIP-seq analysis relative to control cells.
Experiment [10] shares this target. The experiment in a line: Inhibition of RNA polymerase II in mouse B16-F1 migrating cells assessed as fold change in Mtdh-RNA stability at 0.1 mM measured by ChIP-seq analysis relative to control cells.
Experiment [11] shares this target. The experiment in a line: Inhibition of RNA polymerase II in mouse B16-F1 migrating cells assessed as fold change in Znhit1-RNA stability at 0.1 mM measured by ChIP-seq analysis relative to control cells.
For experiment [12] the target is unchanged. The experiment in a line: Inhibition of RNA polymerase II in mouse B16-F1 migrating cells assessed as fold change in Erap1-RNA stability at 0.1 mM measured by ChIP-seq analysis relative to control cells.
Experiment [13] has the same target. The experiment in a line: Inhibition of RNA polymerase II in mouse B16-F1 migrating cells assessed as fold change in Nfya-RNA stability at 0.1 mM measured by ChIP-seq analysis relative to control cells.
For experiment [14] the target is unchanged. The experiment in a line: Inhibition of RNA polymerase II in mouse B16-F1 migrating cells assessed as fold change in Atp2b1-RNA stability at 0.1 mM measured by ChIP-seq analysis relative to control cells.
Experiment [15] shares this target. The experiment in a line: Inhibition of RNA polymerase II in mouse B16-F1 migrating cells assessed as fold change in Fkbp2-RNA stability at 0.1 mM measured by ChIP-seq analysis relative to control cells.
Experiment [16] has the same target. The experiment in a line: Inhibition of RNA polymerase II in mouse B16-F1 migrating cells assessed as fold change in Yif1b-RNA stability at 0.1 mM measured by ChIP-seq analysis relative to control cells.
The target is the same in experiment [17]. The experiment in a line: Inhibition of RNA polymerase II in mouse B16-F1 migrating cells assessed as fold change in C330007P06Rik-RNA stability at 0.1 mM measured by ChIP-seq analysis relative to control cells.
Experiment [18] shares this target. The experiment in a line: Inhibition of RNA polymerase II in mouse B16-F1 migrating cells assessed as fold change in Phip-RNA stability at 0.1 mM measured by ChIP-seq analysis relative to control cells.
The target is the same in experiment [19]. The experiment in a line: Inhibition of RNA polymerase II in mouse B16-F1 migrating cells assessed as fold change in Taf1d-RNA stability at 0.1 mM measured by ChIP-seq analysis relative to control cells.
Experiment [20] shares this target. The experiment in a line: Inhibition of RNA polymerase II in mouse B16-F1 migrating cells assessed as fold change in Dynlt3-RNA stability at 0.1 mM measured by ChIP-seq analysis relative to control cells.
Experiment [21] has the same target. The experiment in a line: Inhibition of RNA polymerase II in mouse B16-F1 migrating cells assessed as fold change in Chmp6-RNA stability at 0.1 mM measured by ChIP-seq analysis relative to control cells.
For experiment [22] the target is unchanged. The experiment in a line: Inhibition of RNA polymerase II in mouse B16-F1 migrating cells assessed as fold change in Rpl41-RNA stability at 0.1 mM measured by ChIP-seq analysis relative to control cells.
Experiment [23] shares this target. The experiment in a line: Inhibition of RNA polymerase II in mouse B16-F1 migrating cells assessed as fold change in Dyrk1a-RNA stability at 0.1 mM measured by ChIP-seq analysis relative to control cells.
Experiment [24] shares this target. The experiment in a line: Inhibition of RNA polymerase II in mouse B16-F1 migrating cells assessed as fold change in Zbtb18-RNA stability at 0.1 mM measured by ChIP-seq analysis relative to control cells.
The target is the same in experiment [25]. The experiment in a line: Inhibition of RNA polymerase II in mouse B16-F1 migrating cells assessed as fold change in Pros1-RNA stability at 0.1 mM measured by ChIP-seq analysis relative to control cells.
The target is the same in experiment [26]. The experiment in a line: Inhibition of RNA polymerase II in mouse B16-F1 migrating cells assessed as fold change in Pfkp-RNA stability at 0.1 mM measured by ChIP-seq analysis relative to control cells.
In experiment [27] the target is Histone-lysine N-methyltransferase EZH2 (Mus musculus) (UniProt Q61188). The experiment in a line: Inhibition of EZH2 in mouse B16-F1 migrating cells assessed as fold change in H3K27me3-independent regulated Srxn1-mRNA expression at 3 uM measured by ChIP-seq analysis relative to control cells.
The target is the same in experiment [28]. The experiment in a line: Inhibition of EZH2 in mouse B16-F1 migrating cells assessed as fold change in H3K27me3-dependent regulated Trib1-mRNA expression at 3 uM measured by ChIP-seq analysis relative to control cells.
The target is the same in experiment [29]. The experiment in a line: Inhibition of EZH2 in mouse B16-F1 migrating cells assessed as fold change in H3K27me3-buffered regulated Des-mRNA expression at 3 uM measured by ChIP-seq analysis relative to control cells.
Experiment [30] has the same target. The experiment in a line: Inhibition of EZH2 in mouse B16-F1 migrating cells assessed as fold change in H3K27me3-independent regulated Pfkp-mRNA expression at 3 uM measured by ChIP-seq analysis relative to control cells.
Experiment [31] has the same target. The experiment in a line: Inhibition of EZH2 in mouse B16-F1 migrating cells assessed as fold change in H3K27me3-buffered regulated Krt80-mRNA expression at 3 uM measured by ChIP-seq analysis relative to control cells.

The chains behind the UniProt entries cited, without tags or fusion partners.
UniProt Q61188, whole entry: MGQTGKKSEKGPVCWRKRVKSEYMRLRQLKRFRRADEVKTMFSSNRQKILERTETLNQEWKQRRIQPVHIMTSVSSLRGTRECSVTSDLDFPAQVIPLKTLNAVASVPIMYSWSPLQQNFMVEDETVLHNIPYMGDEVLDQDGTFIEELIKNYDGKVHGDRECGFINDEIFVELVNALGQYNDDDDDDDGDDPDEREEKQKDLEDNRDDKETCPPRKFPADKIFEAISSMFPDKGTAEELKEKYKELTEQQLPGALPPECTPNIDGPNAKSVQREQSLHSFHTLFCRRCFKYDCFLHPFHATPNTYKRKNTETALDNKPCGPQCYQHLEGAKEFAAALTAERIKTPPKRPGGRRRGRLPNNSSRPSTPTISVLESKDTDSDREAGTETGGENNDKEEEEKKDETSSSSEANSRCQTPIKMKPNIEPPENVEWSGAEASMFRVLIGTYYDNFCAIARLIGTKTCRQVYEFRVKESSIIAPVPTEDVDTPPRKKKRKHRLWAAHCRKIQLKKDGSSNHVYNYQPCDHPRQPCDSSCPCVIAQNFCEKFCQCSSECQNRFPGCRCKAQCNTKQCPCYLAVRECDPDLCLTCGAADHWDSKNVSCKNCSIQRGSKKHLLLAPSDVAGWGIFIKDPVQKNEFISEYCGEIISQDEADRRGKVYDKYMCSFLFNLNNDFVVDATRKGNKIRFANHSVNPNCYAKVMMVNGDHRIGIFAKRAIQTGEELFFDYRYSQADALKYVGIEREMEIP

Further values from the same series stand in other lists.

As for `OC[C@H]1O[C@@H](n2cnc3cc(Cl)c(Cl)cc32)[C@H](O)[C@@H]1O`, the log2FC in experiment [1] is -0.8; in experiment [2], 0.68; in experiment [3], -0.79; in experiment [4], -0.41; in [5], 0.62; in [6] it was 0.5. For the same compound, the log2FC in experiment [7] is 0.61; in experiment [8], 0.45; in experiment [9], -0.53; in [10], -0.75; in experiment [11], 0.51; in [12], -0.64. The log2FC in experiment [13] was -0.54; in experiment [14], -0.65; in experiment [15], 0.47; in experiment [16], 0.52; in experiment [17] it was -0.7; in [18], -0.75. The log2FC is -0.72 in [19]; -0.87 in [20]; 0.39 in experiment [21]; 0.47 in experiment [22]; -0.42 in experiment [23]; -0.61 in experiment [24]. In addition, the figures for the log2FC in experiment [25] and in [26] were -0.65 and 0.6, respectively.

On to `CCCc1cc(C)[nH]c(=O)c1CNC(=O)c1cc(-c2ccnc(N3CCN(C)CC3)c2)cc2c1cnn2C(C)C`, for which the log2FC was found to be 0.91 in [27]; 0.24 in experiment [28]; 0.47 in experiment [29]; 0.49 in experiment [30]; 0.41 in experiment [31].
